Values of other authors, collected in patent US20060183733A1, “Treating microvasculature diseases with acetyl cholinesterase inhibitors” (priority 2005, published 2006).
Entries after “also recorded” stand apart in the source; their conditions may differ.

Test system: regional blood flow in the brain
Settings: PET scanning; Alzheimer's patients and normal subjects; cited from earlier work

## COc1cc2c(cc1OC)C(=O)C(CC1CCN(Cc3ccccc3)CC1)C2 (stereo not shown) [donepizil, 1-benzyl-4->(5,6-dimethoxy-1-indanon)-2-yl methylpiperidine]
  regional blood flow in the brain / CNS structures: Regional blood flow is increased; also recorded: improve blood flow to CNS structures; also recorded: improve regional blood flow in the brain
